Reference: PubChem BioAssay AID624297 (National Center for Advancing Translational Sciences (NCATS), 2012)
The campaign covered roughly 340,000 compounds. About 6,200 (1.8%) were called active. The shares of active, inactive and inconclusive entries below differ from those in the screen. The call rests on the fitted dose curve; in most records, active means well fitted activation curve with a large enough effect; inconclusive means small, poorly fitted or top-dose-only effect; inactive means no such curve, though single readings can be large or run the other way. Where the call is inconclusive, the potency comes from a doubtful curve fit.

Test: A quantitative high throughput screen for small molecules that induce DNA re-replication in SW480 colon adenocarcinoma cells. Further: nearly all actives have a fitted effect of over 55% in size. On re-replication activation: % of control where 0% means no effect.
Settings: Hoechst DNA content imaging, 48 h; re-replication activation: at 46.1 µM (top of the series) unless noted
How it was run: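 Treated cells incubate 48 hr (37 C, 5% CO2), are stained 40 min with Hoechst, and nuclear fluorescence is enumerated; a rise in nuclei with high DNA signal marks re-replication.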
Potency means the concentration at half of the fitted maximal effect.

Compound | Potency | re-replication activation
c1cncc(Nc2nc(-c3ccncc3)cs2)c1 | inconclusive: 29.1 µM [activator, single point] | 
CNC(=S)NNC(=O)c1oc2nc(-c3ccccc3)cc(C)c2c1N | active: 6.51 µM | 
S=C1NC2=C(C(c3ccc(Br)cc3)N1)N1CCC2CC1 (stereo not drawn) | inconclusive: 0.103 µM [activator, full curve, poor fit] | 
O=C(O)CCC(NS(=O)(=O)c1ccc(N2CCCC2=O)cc1)C(=O)O (stereo not drawn) | inconclusive: 29.1 µM [activator, single point] | 
CCOc1ccc(C(c2c(NC(=O)c3ccccc3)sc(C)c2C)N2CCN(CCO)CC2)cc1 (stereo not drawn) | active: 3.66 µM | 
CC1CCN(C(=O)COC(=O)c2cccc(NS(=O)(=O)c3ccccc3)c2)CC1 | inconclusive: 11.6 µM [activator, partial curve, poor fit] | 
CC(=O)Oc1ccc(N(C(C)=O)S(=O)(=O)c2cccs2)c2ccccc12 | inconclusive: 2.91 µM [activator, full curve] | 
COc1ccc(C(=O)/C=C2/C(=O)Nc3ccccc32)c(OC)c1 | inconclusive: 18.4 µM [activator, single point] | 
CCOC(=O)c1sc(SC)c2c1CCC/C2=N/OC | inactive | 
COc1ccc(/C=C/C(=O)NC(=S)NCCc2ccc(OC)c(OC)c2)cc1 | active: 10.3 µM | 
Cc1ccc(NC(=O)N2CCCCC2)cc1[N+](=O)[O-] | inactive | 
COc1ccc2[nH]c(-c3ccc(C)cc3)cc(=O)c2c1 | inconclusive: 18.4 µM [activator, single point] | 
Cc1cc(NC(=O)CSc2nc(-c3ccc(F)cc3)cs2)no1 | inactive | 
Cc1ccsc1C1Nc2ccc3ncccc3c2C2=C1C(=O)CC(C)(C)C2 (stereo not drawn) | inconclusive: 29.1 µM [activator, single point] | 
O=C(NCCc1ccc(O)c(O)c1)C1COc2ccccc2O1 (stereo not drawn) | inconclusive: 29.1 µM [activator, single point] | 
COc1cccc(CC(=O)Nc2cc(C(F)(F)F)ccc2N2CCCC2)c1 | inconclusive: 1.03 µM [activator, full curve, poor fit] | 
CCCCN(CC)CCNC(=O)c1ccc2c(Cl)c3c(nc2c1)CCC3 | inactive | 
NC(=O)C1=C[C@H](C2CCCCC2)C[C@H](OCc2ccc(CO)cc2)O1 |  | inactive: -67.7% [at 9.22 µM]
CCOC(=O)N1CCN(Cc2nnc(-c3cccc(Br)c3)o2)CC1 | inactive | 
Cc1ccc(C(C)C)c(OCC(O)CN(C)Cc2ccccc2)c1 (stereo not drawn) | active: 20.6 µM | 
COc1cc2c(cc1OC)CN(C(=O)c1ccc3nc[nH]c3c1)CC2 | active: 5.8 µM | 
CC(C)(C)c1cc(C(=O)NN)n(Cc2ccc(Cl)cc2Cl)n1 | active: 11.6 µM | 
O=C(Nc1ccccc1OCc1ccccc1)c1ccccc1Br | inconclusive: 25.9 µM [activator, partial curve, poor fit] | 

Compound | Potency | re-replication activation
COc1ccc(Cl)cc1NC(=O)N1CCN(S(C)(=O)=O)CC1 | inconclusive: 6.51 µM [activator, single point] | 
Cc1ccccc1NC(=S)N(Cc1ccccn1)Cc1ccccc1Cl | inconclusive: 29.1 µM [activator, single point] | 
Cc1ccc2nc3c(cc(C#N)c(=O)n3-c3nccs3)c(=O)n2c1 | inconclusive: 9.2 µM [activator, single point] | 
O=C(OCc1ccc([N+](=O)[O-])cc1Cl)c1cnccn1 | inactive | 
COc1ccccc1N(C)S(=O)(=O)c1ccc(C(=O)Nc2cccc(Br)c2)cc1 | inconclusive: 18.4 µM [activator, single point] | 
CCN(CC)S(=O)(=O)c1cccc(C(=O)NC(Cc2c[nH]c3ccccc23)c2nnc3n2CCC3)c1 (stereo not drawn) | inconclusive: 29.1 µM [activator, single point] | 
CCCCC(=O)Nc1nn(CCC)c2nc3ccccc3cc12 | inconclusive: 16.4 µM [activator, single point] | 
COc1ccc(C(=O)CN2CC(C)SC2=Nc2ccc(Cl)cc2)cc1 (stereo not drawn) | inconclusive: 23.1 µM [activator, partial curve, poor fit] | 
C/C(=N\NC(=O)c1ccc(Cl)c(Cl)c1)c1ccccn1 | inconclusive: 10.3 µM [activator, partial curve, poor fit] | 
CC(C(=O)NC1CCCC1)N1CCN(S(=O)(=O)c2ccccc2Cl)CC1 (stereo not drawn) | inconclusive: 14.6 µM [activator, partial curve, poor fit] | 
NCCCS(=O)(=O)O | inconclusive: 0.146 µM [activator, single point] | 
Cc1ccc(NC(=O)N/C=C/c2ccco2)cc1 | inconclusive: 6.51 µM [activator, single point] | 
Cn1nc2sc3ccccc3n2c(=O)c1=O | inconclusive: 7.31 µM [activator, partial curve] | 
O=c1[nH]c(CSc2nc3ccccc3[nH]2)nc2c1cnn2-c1ccccc1 | inactive | 
COc1ccc(/C(O)=C2/C(=O)C(=O)N(c3ccccn3)C2c2ccc(OC)c(OC)c2)cc1 (stereo not drawn) | inconclusive: 0.82 µM [activator, partial curve, poor fit] | 
CN1CCN(c2ccc(NC(=O)COc3ccc(Cl)cc3Cl)cc2)CC1 | inconclusive: 18.4 µM [activator, single point] | 
CC(C)CN1C(=O)c2ccc(C(=O)Nc3c[nH]c(=O)[nH]c3=O)cc2C1=O | inconclusive: 0.517 µM [activator, partial curve, poor fit] | 
CN(CC(=O)N1CCN(c2ccccn2)CC1)S(=O)(=O)c1ccc2ccccc2c1 | inconclusive: 29.1 µM [activator, single point] | 
CC(C)NS(=O)(=O)c1ccc(N2C(=O)c3ccccc3C2=O)cc1 | inconclusive: 4.11 µM [activator, full curve, poor fit] | 
CCN(c1c(C)n(C)n(-c2ccccc2)c1=O)S(C)(=O)=O | inconclusive: 1.03 µM [activator, single point] | 
COc1ccc(N(CC(=O)NCCc2ccccc2)C(=O)c2csnn2)cc1 | inconclusive: 2.24 µM [activator, partial curve, poor fit] | 
COc1ccc(CCN2C(=O)c3ccccc3C2(O)c2ncc[nH]2)cc1OC (stereo not drawn) | inconclusive: 0.731 µM [activator, full curve, poor fit] | 
CCc1noc(C)c1C(=O)NNC(=O)COc1ccc(C)cc1 | inconclusive: 5.8 µM [activator, full curve, poor fit] | 

Compound | Potency | re-replication activation
COc1ccc(NC(=O)CSc2nc(C)cc(C)n2)c([N+](=O)[O-])c1 | inconclusive: 0.0046 µM [activator, full curve, poor fit] | 
CC(C)(C)OC(=O)N[C@@H](Cc1ccccc1)c1nnc(S(=O)(=O)Cc2cccc(F)c2)o1 | inconclusive: 6.51 µM [activator, full curve] | 
CCOC(=O)c1ccccc1NS(=O)(=O)c1ccc(S(=O)(=O)N2CCCC2)cc1 | inconclusive: 32.6 µM [activator, partial curve, poor fit] | 
Cc1ccc(C)c(NC(=O)c2cc(-c3cc(C)c(C)cc3O)n[nH]2)c1 | inconclusive: 29.1 µM [activator, single point] | 
Cc1ccccc1-c1ocnc1C(=O)Nc1ccccc1NC(=O)c1ccccn1 | inconclusive: 29.1 µM [activator, single point] | 
CCC(=O)N1CCc2cc(S(=O)(=O)CCC(=O)Nc3cccc(C)n3)ccc21 | inactive | 
Cc1cc(Nc2ccc(C)c(Cl)c2)nc(N2CCOCC2)n1 | inconclusive: 25.9 µM [activator, single point] | 
OC[C@@H]1[C@@H](c2ccccc2)C(c2ccc(F)cc2)=NN1c1ccccc1 | active: 20.6 µM | 
O=C(CCC(=O)c1ccc(F)cc1)Nc1ccccc1Cl | inactive | 
CC(Sc1ccc2nnc(-c3ccc(F)cc3)n2n1)C(=O)O (stereo not drawn) | inactive | 
Cc1cccc(N2C(=O)C=CC2=O)c1 | inconclusive: 20.6 µM [activator, single point] | 
N/C(CSc1ncccc1C(F)(F)F)=N\O | inconclusive: 16.4 µM [activator, partial curve, poor fit] | 
CCCc1cc(=O)[nH]c(SC(C)C(=O)N2c3ccccc3CC2C)n1 (stereo not drawn) | inactive | 
CCn1cc(Cl)c(C(=O)Nc2nccs2)n1 | inconclusive: 29.1 µM [activator, single point] | 
COc1ccc(C(=O)N(C)CC2CCN(CCc3cccc(C(F)(F)F)c3)CC2)cc1C | inconclusive: 29.1 µM [activator, single point] | 
CCN1CCN(c2nc(-c3ccccc3)nc3ccccc23)CC1 | inconclusive: 29.1 µM [activator, single point] | 
CCOc1cc(S(=O)(=O)NCc2ccccc2)c(OCC)cc1-n1cnnn1 | inactive | 
CSc1ccccc1NC(=O)CN(C)C(=O)Cn1c(=O)oc2ccccc21 | inconclusive: 23.1 µM [activator, single point] | 
OCCNc1nc(-c2ccccc2)c2cc(Cl)ccc2n1 | inconclusive: 20.6 µM [activator, single point] | 
O=C(/C(=N/N=C/c1ccc(O)c(O)c1O)c1ccccc1)c1ccccc1 | inconclusive: 8.2 µM [activator, partial curve, poor fit] | 
Cc1cc(/C(N)=N/OC(=O)Nc2ccc(Cl)cc2)no1 | inconclusive: 29.1 µM [activator, single point] | 
CN(CC(=O)Nc1ccc(F)c(F)c1F)C(=O)CCN1C(=O)C2CCCCC2C1=O (stereo not drawn) | inconclusive: 29.1 µM [activator, single point] | 

Full records, quoted from the list.
Cc1ccc(C)c(NC(=O)c2cc(-c3cc(C)c(C)cc3O)n[nH]2)c1 as listed: Potency: inconclusive: 29.1 µM [activator, single point]
N/C(CSc1ncccc1C(F)(F)F)=N\O as listed: Potency: inconclusive: 16.4 µM [activator, partial curve, poor fit]
Cc1cc(Nc2ccc(C)c(Cl)c2)nc(N2CCOCC2)n1 as listed: Potency: inconclusive: 25.9 µM [activator, single point]
